Data: the supplement of paper PMC8728848
The list shows a part of the results.

Legend:
Test in all cases: glycan array binding signal (z-score within array); higher = stronger binding
Conditions in all cases: glycan notation: IUPAC condensed, linker removed
[1] = target: Fuc(a1-2)Gal(b1-4)GlcNAc(b1-3)Gal(b1-4)GlcNAc(b1-3)Gal(b1-4)GlcNAc
Summary of the method: (§1)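 The binding signal is a Z-score computed within each array and averaged over linkers. Arrays of the same protein sequence at different concentrations or buffers were also averaged together. Data originate from 3228 arrays in the Consortium for Functional Glycomics database, kept only where the protein sequence was available.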

[2] = target: Fuc(a1-2)Gal(b1-4)GlcNAc(b1-3)GalNAc
Summary of the method: as §1

[3] = target: Fuc(a1-2)Gal(b1-4)GlcNAc(b1-3)[Fuc(a1-2)Gal(b1-4)GlcNAc(b1-6)]GalNAc
Summary of the method: as §1

[4] = target: Fuc(a1-2)Gal(b1-4)GlcNAc(b1-3)[Fuc(a1-3)[Gal(b1-4)]GlcNAc(b1-6)]Gal(b1-4)Glc
Summary of the method: as §1

[5] = target: Fuc(a1-2)Gal(b1-4)GlcNAc(b1-6)GalNAc
Summary of the method: as §1

[6] = target: Fuc(a1-2)Gal(b1-4)GlcNAc6S
Summary of the method: as §1

[7] = target: Fuc(a1-2)Gal(b1-4)[Fuc(a1-3)]GlcNAc
Summary of the method: as §1

[8] = target: Fuc(a1-2)Gal(b1-4)[Fuc(a1-3)]GlcNAc(b1-2)Man(a1-3)[Fuc(a1-2)Gal(b1-4)[Fuc(a1-3)]GlcNAc(b1-2)Man(a1-6)]Man(b1-4)GlcNAc(b1-4)[Fuc(a1-6)]GlcNAc
Summary of the method: as §1

[9] = target: Fuc(a1-2)Gal(b1-4)[Fuc(a1-3)]GlcNAc(b1-2)[Fuc(a1-2)Gal(b1-4)[Fuc(a1-3)]GlcNAc(b1-4)]Man(a1-3)[Fuc(a1-2)Gal(b1-4)[Fuc(a1-3)]GlcNAc(b1-2)Man(a1-6)]Man(b1-4)GlcNAc(b1-4)GlcNAc
Summary of the method: as §1

[10] = target: Fuc(a1-2)Gal(b1-4)[Fuc(a1-3)]GlcNAc(b1-3)Gal(b1-4)[Fuc(a1-3)]GlcNAc
Summary of the method: as §1

[11] = target: Fuc(a1-2)Gal(b1-4)[Fuc(a1-3)]GlcNAc(b1-3)Gal(b1-4)[Fuc(a1-3)]GlcNAc(b1-3)Gal(b1-4)[Fuc(a1-3)]GlcNAc
Summary of the method: as §1

[12] = target: Fuc(a1-2)Gal(b1-4)[Fuc(a1-3)]GlcNAc(b1-3)GalNAc
Summary of the method: as §1

[13] = target: Fuc(a1-2)Gal(b1-4)[Fuc(a1-3)]GlcNAc(b1-3)[Neu5Ac(a2-6)Gal(b1-4)GlcNAc(b1-6)]Gal(b1-4)Glc
Summary of the method: as §1

[14] = target: Fuc(a1-2)Gal3S(b1-4)GlcNAc
Summary of the method: as §1

[15] = target: Fuc(a1-2)Gal6S(b1-3)GlcNAc
Summary of the method: as §1

[16] = target: Fuc(a1-2)Gal6S(b1-3)GlcNAc6S
Summary of the method: as §1

[17] = target: Fuc(a1-2)Gal6S(b1-4)Glc
Summary of the method: as §1

[18] = target: Fuc(a1-2)Gal6S(b1-4)Glc6S
Summary of the method: as §1

[19] = target: Fuc(a1-2)[Gal(a1-3)]Gal
Summary of the method: as §1

[20] = target: Fuc(a1-2)[Gal(a1-3)]Gal(b1-3)GalNAc
Summary of the method: as §1

[21] = target: Fuc(a1-2)[Gal(a1-3)]Gal(b1-3)GalNAc(b1-3)Gal(a1-4)Gal(b1-4)Glc
Summary of the method: as §1

[22] = target: Fuc(a1-2)[Gal(a1-3)]Gal(b1-3)GlcNAc
Summary of the method: as §1

[23] = target: Fuc(a1-2)[Gal(a1-3)]Gal(b1-3)GlcNAc(b1-2)Man(a1-3)[Fuc(a1-2)[Gal(a1-3)]Gal(b1-3)GlcNAc(b1-2)Man(a1-6)]Man(b1-4)GlcNAc(b1-4)GlcNAc
Summary of the method: as §1

[24] = target: Fuc(a1-2)[Gal(a1-3)]Gal(b1-3)GlcNAc(b1-2)Man(a1-3)[Fuc(a1-2)[Gal(a1-3)]Gal(b1-3)GlcNAc(b1-2)Man(a1-6)]Man(b1-4)GlcNAc(b1-4)[Fuc(a1-6)]GlcNAc
Summary of the method: as §1

[25] = target: Fuc(a1-2)[Gal(a1-3)]Gal(b1-3)GlcNAc(b1-3)GalNAc
Summary of the method: as §1

[26] = target: Fuc(a1-2)[Gal(a1-3)]Gal(b1-3)GlcNAc(b1-6)GalNAc
Summary of the method: as §1

[27] = target: Fuc(a1-2)[Gal(a1-3)]Gal(b1-4)Glc
Summary of the method: as §1

[28] = target: Fuc(a1-2)[Gal(a1-3)]Gal(b1-4)GlcNAc
Summary of the method: as §1

[29] = target: Fuc(a1-2)[Gal(a1-3)]Gal(b1-4)GlcNAc(b1-2)Man
Summary of the method: as §1

[30] = target: Fuc(a1-2)[Gal(a1-3)]Gal(b1-4)GlcNAc(b1-2)Man(a1-3)[Fuc(a1-2)[Gal(a1-3)]Gal(b1-4)GlcNAc(b1-2)Man(a1-6)]Man(b1-4)GlcNAc(b1-4)GlcNAc
Summary of the method: as §1

B1: PX15642A-pgi-501-20-501 (Parabacteroides gingivalis) (protein)
chain: CELDRDPEGKDFQQPYTSFVQTKQNRDGLYALLRNTENPRMHFYQELQSDMYCTTITDGNSLAPFVNWDLGILNDHGRADEDEVSGIAGYYFVYNRLNQQANAFVNNTEAALQNQVYKNSTEIANAKSFLAEGKVLQALAIWRLMDRFSFHESVTEVNSGAKDLGVILLKEYNPGYIGPRATKAQCYDYILSRLSEAIEVLPENRESVLYVSRDYAYALRARIYLALGEYGKAAADAKMVVDKYPLIGAADASEFENIYRSDANNPEIIFRGFASATLGSFTATTLNGAAPAGKDIKYNPSAVPFQWVVDLYENEDFRKSVYIAKVVKKDKGYLVNKFLEDKAYRDVQDKPNLKVGARYFSVAEVYLILVESALQTGDTPTAEKYLKALSKARGAEVSVVNMEALQAERTRELIGEGSRLRDMVRWSIPNNHDAFETQPGLEGFANTTPLKAQAPVGFYAYTWEFPQRDRQTNPQLIKNWPI
glycan array binding signal (z-score) [1]: -0.395
glycan array binding signal (z-score) [2]: -0.892
glycan array binding signal (z-score) [3]: -0.178
glycan array binding signal (z-score) [4]: 0.03
glycan array binding signal (z-score) [5]: 2.85
glycan array binding signal (z-score) [6]: -0.631
glycan array binding signal (z-score) [7]: -0.863
glycan array binding signal (z-score) [8]: 0.304
glycan array binding signal (z-score) [9]: -0.484
glycan array binding signal (z-score) [10]: -0.326
glycan array binding signal (z-score) [11]: -0.25
glycan array binding signal (z-score) [12]: -0.369
glycan array binding signal (z-score) [13]: 0.612
glycan array binding signal (z-score) [14]: -0.833
glycan array binding signal (z-score) [15]: 0.128
glycan array binding signal (z-score) [16]: 1.84
glycan array binding signal (z-score) [17]: -0.623
glycan array binding signal (z-score) [18]: -0.092
glycan array binding signal (z-score) [19]: -0.188
glycan array binding signal (z-score) [20]: -0.291
glycan array binding signal (z-score) [21]: -0.013
glycan array binding signal (z-score) [22]: -0.015
glycan array binding signal (z-score) [23]: 1.53
glycan array binding signal (z-score) [24]: 0.149
glycan array binding signal (z-score) [25]: -1.06
glycan array binding signal (z-score) [26]: -0.359
glycan array binding signal (z-score) [27]: -0.405
glycan array binding signal (z-score) [28]: 1.03
glycan array binding signal (z-score) [29]: -0.144
glycan array binding signal (z-score) [30]: 0.849
